Results are given in words; binding and its absence hold for the method and conditions named. In cells and extracts the contact can be indirect. Some entries that bind do so weakly or less than the wild type. Sequences can lack the tags named with a protein.
Columns and labels:
Experiment in all cases: co-IP
[1] = target: T1, mouse sPLA2-IIA-myc (mouse Pla2g2a-Myc-DDK) (mouse) (UniProt P31482)
T1 sequence: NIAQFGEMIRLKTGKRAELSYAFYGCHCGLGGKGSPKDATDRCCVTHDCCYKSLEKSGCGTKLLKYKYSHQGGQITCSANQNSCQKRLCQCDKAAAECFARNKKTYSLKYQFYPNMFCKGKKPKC

Chains of the proteins cited; added tags and fusions are not shown. Residues count along the entry.
UniProt P28799, residues 18-593: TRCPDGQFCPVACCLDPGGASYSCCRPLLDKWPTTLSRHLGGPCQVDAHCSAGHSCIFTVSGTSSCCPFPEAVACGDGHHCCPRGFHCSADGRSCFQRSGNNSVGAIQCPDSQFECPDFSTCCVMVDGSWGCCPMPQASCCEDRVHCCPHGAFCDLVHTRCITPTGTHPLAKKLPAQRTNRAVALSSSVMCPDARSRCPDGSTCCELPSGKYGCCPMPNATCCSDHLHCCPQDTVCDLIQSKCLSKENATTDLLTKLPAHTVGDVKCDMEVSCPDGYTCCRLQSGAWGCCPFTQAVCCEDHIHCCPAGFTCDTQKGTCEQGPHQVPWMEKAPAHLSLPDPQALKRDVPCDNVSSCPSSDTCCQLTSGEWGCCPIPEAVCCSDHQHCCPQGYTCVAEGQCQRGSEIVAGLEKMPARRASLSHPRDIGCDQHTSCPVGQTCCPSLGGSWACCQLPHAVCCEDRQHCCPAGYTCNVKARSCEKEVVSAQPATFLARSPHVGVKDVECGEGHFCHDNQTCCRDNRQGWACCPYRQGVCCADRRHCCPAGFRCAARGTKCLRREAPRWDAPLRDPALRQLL

[2] = target: GFP-PGRN (human progranulin), expressed in HEK293T cells (human) (UniProt P28799)
[3] = target: Flag-PGRN (human) (human) (UniProt P28799)

B1: FLAG-mouse-PGRN (protein, UniProt P28798 18-589)
chain: TQCPDGQFCPVACCLDQGGANYSCCNPLLDTWPRITSHHLDGSCQTHGHCPAGYSCLLTVSGTSSCCPFSKGVSCGDGYHCCPQGFHCSADGKSCFQMSDNPLGAVQCPGSQFECPDSATCCIMVDGSWGCCPMPQASCCEDRVHCCPHGASCDLVHTRCVSPTGTHTLLKKFPAQKTNRAVSLPFSVVCPDAKTQCPDDSTCCELPTGKYGCCPMPNAICCSDHLHCCPQDTVCDLIQSKCLSKNYTTDLLTKLPGYPVKEVKCDMEVSCPEGYTCCRLNTGAWGCCPFAKAVCCEDHIHCCPAGFQCHTEKGTCEMGILQVPWMKKVIAPLRLPDPQILKSDTPCDDFTRCPTNNTCCKLNSGDWGCCPIPEAVCCSDNQHCCPQGFTCLAQGYCQKGDTMVAGLEKIPARQTTPLQIGDIGCDQHTSCPVGQTCCPSLKGSWACCQLPHAVCCEDRQHCCPAGYTCNVKARTCEKDVDFIQPPVLLTLGPKVGNVECGEGHFCHDNQTCCKDSAGVWACCPYLKGVCCRDGRHCCPGGFHCSARGTKCLRKKIPRWDMFLRDPVPRPLL
binding [1]: binds

B2: human sPLA2-IIA-myc (human Pla2g2a-Myc-His) (enzyme, UniProt P14555 21-144)
chain: NLVNFHRMIKLTTGKEAALSYGFYGCHCGVGGRGSPKDATDRCCVTHDCCYKRLEKRGCGTKFLSYKFSNSGSRITCAKQDSCRSQLCECDKAAATCFARNKTTYNKKYQYYSNKHCRGSTPRC
binding [2]: binds

B3: untagged human sPLA2-IIA (enzyme, UniProt P14555 21-144)
chain: B2 chain
binding [3]: binds
